Results are given in words; binding and its absence hold for the method and conditions named. Binding seen in cells or lysates may run through a third protein. Some binding calls cover weakened binding; strength is not graded here.
Columns and labels:
[1] = biological target: MUC16^c57-114-pFUSE-hIgG1-Fc2 fusion protein (human); test: co-immunoprecipitation of purified proteins on Protein A/G beads, immunoblot
[2] = biological target: MUC16^c57-114-pFUSE-hIgG1-Fc2 fusion protein (human); test: co-precipitation on preblocked protein A/G PLUS agarose beads (1 hr at 4 °C), western blot with anti-DDK clone 4C5
[3] = biological target: MUC16^c57-114-pFUSE-hIgG1-Fc2 fusion protein (human); test: co-immunoprecipitation on Protein A/G PLUS agarose beads (1 hr at 4 °C) through the Fc of MUC16 pFUSE, blot Poly-anti-LGALS3

Chains of the proteins cited; added tags and fusions are not shown.
UniProt P17931: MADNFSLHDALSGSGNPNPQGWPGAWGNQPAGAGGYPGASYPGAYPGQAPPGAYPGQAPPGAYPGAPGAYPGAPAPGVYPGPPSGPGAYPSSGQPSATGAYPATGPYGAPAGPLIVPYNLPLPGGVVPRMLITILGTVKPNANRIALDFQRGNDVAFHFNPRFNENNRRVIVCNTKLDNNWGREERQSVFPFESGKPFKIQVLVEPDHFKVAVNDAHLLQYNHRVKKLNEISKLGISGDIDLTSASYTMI

Measured: binding

LGALS3Myc-DDK (from UniProt P17931 1-250)
binds: [1] | [2] | [3]

Reference: US20180112008A1 (Memorial Sloan Kettering, published 2018)
